Measurements published in PubChem BioAssay AID493014 (National Center for Advancing Translational Sciences (NCATS), 2011).
About 170 (0.05%) of roughly 340,000 compounds were called active. Inconclusive means that the source gave no clear call. Such entries were picked first, then a sample of the others. Calls follow the shape of the dose curve; as a rule, active = well fitted inhibition curve with a large enough effect in the signal ratio, with a control signal flat (not every such curve was filed as active); inconclusive = small, poorly fitted or top-dose-only effect, or effect the other way, or a change in a side signal; inactive = flat fitted curve, though single readings scatter; the % refers to the signal ratio. Potencies of inconclusive entries are doubtful fits and often do not repeat.

Test: qHTS Assay to Find Inhibitors of Chronic Active B-Cell Receptor Signaling;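 as to activity change, negative = inhibition: plate controls were basal doxycycline-induced cells for no effect and cells given 10 µM MG132 for full effect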
Conditions: ABC-DLBCL IkBa-CBG/CBR reporter, luminescence ratio (green luciferase fused to IkBa over red control in TMD8 lymphoma cells), 4 h; activity change, negative = inhibition: at 46.1 µM (top of the series)
How it was run: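 TMD8 human ABC-DLBCL cells with doxycycline-inducible IκBα–green luciferase fusion and unfused red luciferase, in 0.5% FBS medium; compounds up to 46 uM, 4 h at 37C. Green/red luminescence ratio, filter-overlap corrected, fitted to concentration-response curves.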
Potency is read from the fitted curve at half-maximal effect.

Row | SMILES | Potency | activity change, negative = inhibition
1 | CCCCCCCCCCn1ccc(=N)cc1 | inconclusive: 31.6 µM [rising, single point] | 
2 | Cc1ccc(NC(=O)CSC(C)C(=O)OCC(=O)N2CCN(C(=O)c3ccco3)CC2)cc1 (stereo not drawn) |  | inactive: 6.3%
3 | CCn1nc(C)cc1C(=O)NC1CCCc2c1cnn2-c1ccc(C)c(C)c1 (stereo not drawn) |  | inactive: -10.2%
4 | CCCn1c(SCC(=O)N2CCN(c3ccccc3)CC2)nc2ccccc2c1=O |  | inconclusive: 3.39%
5 | C[C@H](CO)N1C[C@H](C)[C@H](CN(C)C(=O)Nc2ccc(F)cc2)Oc2ccc(NC(=O)NC3CCCCC3)cc2CC1=O |  | inconclusive: 2.21%
6 | COc1ccc2c(C)nc(N/C(N)=N/S(=O)(=O)c3ccc(C)cc3)nc2c1 |  | inactive: -0.848%
7 | Cc1ccccc1C(=O)Nc1ccc2c(c1)CCCN2C(=O)c1cccs1 |  | inconclusive: -2.44%
8 | O=Cc1ccc(N2Cc3ccccc3C2)cc1 |  | inconclusive: 13.7%
9 | COc1cccc(C(=O)NCCSc2ccc(Br)cc2)c1 | inconclusive: 35.5 µM [falling, single point] | 
10 | Cc1ccc(S(=O)(=O)NCC(=O)NCC(=O)NC(C)c2ccccc2Br)cc1C (stereo not drawn) | inconclusive: 15.8 µM [falling, single point] | 
11 | O=C(O)COc1ccc(Nc2ccccc2)cc1 |  | inconclusive: 13.5%
12 | Cc1ccc(C2(O)CN(c3ccccc3C)C3=[N+]2CCS3)cc1 (stereo not drawn) |  | inconclusive: -18.8%
13 | O=C(OCC(=O)N1CCCC1)c1c[nH]c2ccccc12 | inconclusive: 20.6 µM [falling, partial curve] | 
14 | O=C(CSc1nnc2ccc3ccccc3n12)c1ccc(F)cc1 | inconclusive: 14.6 µM [falling, partial curve] | 
15 | COc1ccc(OC)c(/C=N/NC(=O)CNC(=O)c2ccc(S(=O)(=O)N3CCOCC3)cc2)c1 |  | inactive: 3.41%
16 | Cc1cc(C)n2c(SCC(=O)Nc3cc(S(=O)(=O)N(C)C)ccc3C)nnc2n1 |  | inconclusive: -0.261%
17 | O=C(COc1ccc(Br)cc1)NCCCn1ccnc1 |  | inconclusive: 7.17%
18 | O=C(N/N=C/c1ccc(OCc2ccc(F)cc2)cc1)c1ccccc1 | inconclusive: 12.6 µM [falling, partial curve] | 
19 | CN(C)CCCN=Cc1c(O)n(Cc2ccccc2)c(=O)c2ccccc12 |  | inactive: 10.8%
20 | CC(=O)c1cccc(NC(=O)COC(=O)c2ccc(S(C)(=O)=O)c([N+](=O)[O-])c2)c1 | inconclusive: 31.6 µM [rising, single point] | 
21 | C[C@@]12C(=O)Nc3ccc(Cl)cc3C(=O)N1[C@H]1c3cc(Cl)ccc3OC[C@@H]1[C@@H]2c1ccccc1 |  | inconclusive: -0.515%
22 | O=C(Nc1ccccc1)N1CCC(c2ccccc2)C1 (stereo not drawn) | inconclusive: 31.6 µM [rising, single point] | 
23 | O=C(/C=C/N1CCN(Cc2ccccc2)CC1)C(F)(F)F |  | inconclusive: -0.516%
24 | Clc1ccc(Oc2ccccc2)c2ncccc12 |  | inconclusive: -9.96%
25 | COc1ccc(CNC(=O)c2cncc(Br)c2)cc1 |  | inconclusive: 4.14%
26 | CCN(CC)S(=O)(=O)c1ccc2c(c1)nc(SCC(N)=O)n2-c1ccc(OC)cc1 | inconclusive: 23.1 µM [falling, partial curve, poor fit] | 
27 | CCN(CC)c1ccc(/C=C(/C#N)C(=O)NC(C)C)o1 |  | inconclusive: -0.399%

Row | SMILES | Potency | activity change, negative = inhibition
28 | O=C(/C=C/c1ccc2c(c1)OCO2)c1ccc[nH]1 | inconclusive: 23.1 µM [falling, single point] | 
29 | CCOc1ccc(S(=O)(=O)NN)cc1 |  | inconclusive: -0.238%
30 | CC1CCCCN1CC(=O)Nc1sc2c(c1C#N)CCC2 (stereo not drawn) |  | inconclusive: 0.463%
31 | COc1ccc2oc(C(=O)N3CCc4ccccc43)c(C)c2c1 |  | inconclusive: -1.65%
32 | O=C(O)/C=C/c1ccc(S(=O)(=O)Nc2ccc(OCc3ccccc3)cc2)cc1 |  | inactive: -3.56%
33 | Cc1ccccc1C(=O)Nc1ccc(S(=O)(=O)N2CCN(C)CC2)cc1 |  | inconclusive: 8.26%
34 | CCc1nc(N=C(N)N)nc2ccccc12 |  | inconclusive: 0.975%
35 | CC(C)Cc1nc(C#N)c(N2CCC(C(N)=O)CC2)o1 |  | inconclusive: -0.0526%
36 | Clc1ccc(CN2CCN(c3ncccn3)CC2)cc1Cl |  | inactive: 7.1%
37 | COc1ccc(N2CCN(C(=O)CCC(=O)N3CC(C)Oc4ccccc43)CC2)cc1 (stereo not drawn) |  | inactive: -18.8%
38 | COc1ccc(C(=O)Nc2c(-c3cccs3)c(=O)c3ccccc3n2C)cc1 |  | inconclusive: 4.58%
39 | O=C(Nc1nc2ccc([N+](=O)[O-])cc2s1)c1ccncc1 | inconclusive: 10 µM [falling, partial curve, poor fit] | 
40 | Cc1cc(C(=O)CSc2nnc(-c3ccco3)o2)c(C)n1CC1COc2ccccc2O1 (stereo not drawn) |  | inactive: 5.19%
41 | C=CCNC(=S)N/N=C(\C)c1ccccn1 | inconclusive: 11.6 µM [falling, partial curve, poor fit] | 
42 | CCOC(=O)C1=C(C)NC(=S)NC1c1ccco1 (stereo not drawn) |  | inactive: 19%
43 | COC(=O)c1c(C(=O)OC)c(-c2ccccc2)n2c1CS(=O)C2 (stereo not drawn) | inconclusive: 11.6 µM [rising, single point] | 
44 | CCOc1ccc(S(=O)(=O)Nc2ccccc2C(=O)NCc2ccco2)cc1 |  | inactive: 1.14%
45 | Cc1cc(C(=O)NC2CCCc3ccccc32)ccc1[N+](=O)[O-] (stereo not drawn) |  | inconclusive: -26.4%
46 | CC(C)c1nc2c(s1)CCc1onc(-c3ccc(Cl)cc3)c1-2 |  | inactive: 4.6%
47 | O=C(Nc1ccc(O)cc1)C1CC=CCC1 (stereo not drawn) | inconclusive: 2.82 µM [rising, full curve, poor fit] | 
48 | COc1ccccc1N1CCN(Cc2cc3c(cc2Br)OCCO3)CC1 |  | inactive: 4%
49 | Cc1csc(SCC(=O)Nc2ccc(S(=O)(=O)N3CCCC3)cc2)n1 |  | inactive: 0.126%
50 | COC(=O)CN1C(=O)C(O)(CC(=O)c2cccc(Br)c2)c2ccccc21 (stereo not drawn) | inconclusive: 0.058 µM [rising, full curve, poor fit] | 
51 | Cc1ccccc1N1CCN(c2ncnc3c2cnn3Cc2ccc(Cl)cc2)CC1 |  | inconclusive: -0.972%
52 | CC(C)(C)OC(=O)N1CCC(CNC(=O)Nc2ccccc2)CC1 |  | inconclusive: -3.11%
53 | CS(=O)(=O)Cc1ccc(C(=O)Nc2cccc(-c3nc4ccccc4[nH]3)c2)cc1 |  | inconclusive: -24.5%

2 of the compounds above, with tabs:
Row	SMILES	Potency	activity change, negative = inhibition
31	COc1ccc2oc(C(=O)N3CCc4ccccc43)c(C)c2c1		inconclusive: -1.65%
48	COc1ccccc1N1CCN(Cc2cc3c(cc2Br)OCCO3)CC1		inactive: 4%
